Assay results taken from PMC6180346, “Two Faces of CwlM, an Essential PknB Substrate, in Mycobacterium tuberculosis” (Cell Reports, 2018).
Results are given in words; binding and its absence hold for the method and conditions named. Binding seen in cells or lysates may run through a third protein. Some binding calls cover weakened binding; strength is not graded here. Where a sequence is shown, tags or fusion partners need not be part of it.

By UniProt entry, the sequences of proteins in these tests, tags left out.
UniProt P9WJF3: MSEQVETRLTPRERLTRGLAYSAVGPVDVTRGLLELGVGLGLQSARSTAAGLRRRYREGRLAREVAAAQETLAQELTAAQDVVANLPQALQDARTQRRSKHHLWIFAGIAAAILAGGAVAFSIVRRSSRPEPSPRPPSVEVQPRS

T1: CwlM fused to a dihydrofolate reductase domain (M-PFC) (M. tuberculosis) (UniProt L7N653)
T1 sequence: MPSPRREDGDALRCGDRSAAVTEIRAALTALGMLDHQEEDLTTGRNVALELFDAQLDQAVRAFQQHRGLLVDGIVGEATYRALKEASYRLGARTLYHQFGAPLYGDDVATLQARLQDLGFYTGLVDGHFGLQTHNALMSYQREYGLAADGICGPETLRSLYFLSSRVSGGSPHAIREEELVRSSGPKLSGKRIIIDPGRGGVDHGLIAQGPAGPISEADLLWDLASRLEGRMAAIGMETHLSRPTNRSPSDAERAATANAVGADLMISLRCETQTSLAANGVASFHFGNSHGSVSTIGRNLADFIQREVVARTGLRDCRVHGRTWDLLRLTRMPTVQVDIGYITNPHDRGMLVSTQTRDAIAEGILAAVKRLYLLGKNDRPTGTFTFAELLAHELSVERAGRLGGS

B1: FhaA fused to a dihydrofolate reductase domain (M-PFC) (protein, UniProt P71590 1-527)
chain: MGSQKRLVQRVERKLEQTVGDAFARIFGGSIVPQEVEALLRREAADGIQSLQGNRLLAPNEYIITLGVHDFEKLGADPELKSTGFARDLADYIQEQGWQTYGDVVVRFEQSSNLHTGQFRARGTVNPDVETHPPVIDCARPQSNHAFGAEPGVAPMSDNSSYRGGQGQGRPDEYYDDRYARPQEDPRGGPDPQGGSDPRGGYPPETGGYPPQPGYPRPRHPDQGDYPEQIGYPDQGGYPEQRGYPEQRGYPDQRGYQDQGRGYPDQGQGGYPPPYEQRPPVSPGPAAGYGAPGYDQGYRQSGGYGPSPGGGQPGYGGYGEYGRGPARHEEGSYVPSGPPGPPEQRPAYPDQGGYDQGYQQGATTYGRQDYGGGADYTRYTESPRVPGYAPQGGGYAEPAGRDYDYGQSGAPDYGQPAPGGYSGYGQGGYGSAGTSVTLQLDDGSGRTYQLREGSNIIGRGQDAQFRLPDTGVSRRHLEIRWDGQVALLADLNSTNGTTVNNAPVQEWQLADGDVIRLGHSEIIVRMH

Molecular target: T1, CwlM fused to a dihydrofolate reductase domain (M-PFC) (M. tuberculosis)
Experiment: split reporter; mycobacterial protein fragment complementation (M-PFC), fusions with dihydrofolate reductase domains in M. smegmatis, spotted on 7H10 plates with hygromycin, kanamycin and trimethoprim

| Molecule | binding |
| --- | --- |
| CwsA fused to a dihydrofolate reductase domain (M-PFC) (from UniProt P9WJF3 1-145) | binds |
| B1 | binds |
